Reference: PubChem BioAssay AID540256 (National Center for Advancing Translational Sciences (NCATS), 2011)
About 3,700 (1.2%) of roughly 300,000 compounds were called active. Inconclusive results, whose numbers are uncertain, are shown with a selection of clear calls. Calls come from the whole dose curve; tested in HEK293 cells. A potency beside an inconclusive call is a rough fit, not a confirmed value.

test: qHTS for Inhibitors of binding or entry into cells for Lassa Virus; conditions: Lassa virus pseudotype entry inhibition, cell reporter; series mostly up to 37.9 µM; note: nearly all actives have a fitted effect of over 50% in size
Potency is the fitted concentration of half-maximal effect.

| SMILES | Potency |
| --- | --- |
| COc1ccc(CCNC(=O)c2ccc(CN3CCOCC3)cc2)cc1 | inactive |
| On1onc2c3cc(-c4ccccc4)nc3ccc21 | inconclusive: 5.01 µM [inhibitor, full curve, poor fit] |
| CCOc1cc(/C=N/Nc2cccc(C(=O)O)c2)ccc1OCC(=O)N1CCCCC1 | inactive |
| CCc1ccc(N/C(SCc2cccc(F)c2)=C(/C#N)C(=O)NCc2ccco2)cc1 | inconclusive: 29.1 µM [inhibitor, single point] |
| Cc1cccn2c(=O)cc(CSc3nnc(NC(=O)c4ccc(F)cc4)s3)nc12 | inconclusive: 31.6 µM [activator, single point] |
| O=C(NCCc1ccccc1)c1ccc(Cn2c(SCc3ccccc3)nc3cccnc32)cc1 | inactive |
| O=C(CNC(=O)c1ccccc1Cl)OCC(=O)N1CCc2ccccc21 | inconclusive: 14.1 µM [activator, partial curve, poor fit] |
| CC(=O)Nc1ccc2nc(-c3cccnc3)[nH]c2c1 | inactive |
| CN(CCc1cn[nH]c1)Cc1nc(C(c2ccccc2)c2ccccc2)no1 | inactive |
| Cc1cc(C)n(/N=C/c2ccc(C(C)C)cc2)c(=O)c1C#N | inconclusive: 10.3 µM [activator, partial curve, poor fit] |
| O=c1[nH]c2ccccc2c(O)c1-c1ccccc1[N+](=O)[O-] | inconclusive: 35.5 µM [activator, single point] |
| CCOc1ccc(N(CC)C(=O)CCc2nc(-c3ccccc3F)no2)cc1 | inconclusive: 35.5 µM [inhibitor, single point] |
| Oc1ccc(N2CCN(c3nc(-c4cccs4)nc4ccccc34)CC2)cc1 | inactive |
| COc1ccc(C(=O)Nc2nc3ccccc3n2CCOc2ccc(Cl)cc2)cc1 | inactive |
| Cc1sc2ncnc(N[C@@H](Cc3ccccc3)C(=O)O)c2c1C | inactive |
| CC(C)(C)c1ccc(/C=C2\Oc3cc(O)ccc3C2=O)cc1 | inconclusive: 35.5 µM [inhibitor, single point] |
| CNC(=O)c1cnc2sc(N3CCCCCC3)nn2c1=O | inconclusive: 5.62 µM [activator, single point] |
| O=C(O)Cn1nnn(-c2ccccc2)c1=S | inconclusive: 18.3 µM [activator, partial curve, poor fit] |
| COc1ccccc1C(=O)NC(=S)Nc1ccc(NC(=O)c2ccco2)cc1 | inactive |
| O=C(Nc1cccnc1)C1(c2ccccc2)CCCC1 | inconclusive: 5.62 µM [inhibitor, single point] |
| O=C(NCC(=O)N1CCN(S(=O)(=O)/C=C/c2ccccc2)CC1)c1ccc(Cl)cc1 | inactive |
| O=[N+]([O-])c1cc(S(=O)(=O)Nc2ccccc2)ccc1Nc1ccccc1 | inconclusive: 20 µM [inhibitor, single point] |
| CCCn1c(=O)n(C)c(=O)c2c(SCC(=O)NCC(c3ccccc3)N(C)C)nc(CC(C)C)nc21 (stereo not drawn) | inconclusive: 35.5 µM [inhibitor, single point] |

Look-ups from the list:
Entry of O=[N+]([O-])c1cc(S(=O)(=O)Nc2ccccc2)ccc1Nc1ccccc1 under Potency: inconclusive: 20 µM [inhibitor, single point]
Entry of Cc1cccn2c(=O)cc(CSc3nnc(NC(=O)c4ccc(F)cc4)s3)nc12 under Potency: inconclusive: 31.6 µM [activator, single point]
Entry of CC(=O)Nc1ccc2nc(-c3cccnc3)[nH]c2c1 under Potency: inactive
Entry of O=C(NCCc1ccccc1)c1ccc(Cn2c(SCc3ccccc3)nc3cccnc32)cc1 under Potency: inactive
Entry of COc1ccc(C(=O)Nc2nc3ccccc3n2CCOc2ccc(Cl)cc2)cc1 under Potency: inactive
Entry of O=C(O)Cn1nnn(-c2ccccc2)c1=S under Potency: inconclusive: 18.3 µM [activator, partial curve, poor fit]

(further entries)

| SMILES | Potency |
| --- | --- |
| CCN(C(=O)CSc1nc2ccccc2nc1Cc1ccc(F)cc1)c1cccc(C)c1 | inconclusive: 12.6 µM [inhibitor, partial curve, poor fit] |
| CC(C(=O)Nc1ccc2c(c1)OCO2)N(C)CC(=O)Nc1ccc(Cl)cc1 (stereo not drawn) | inactive |
| CSCc1c(C(=O)NC2CCCc3ccccc32)oc2ccccc12 (stereo not drawn) | inconclusive: 14.1 µM [inhibitor, single point] |
| O=C(CCS(=O)(=O)c1cc(Br)cc2c1N(C(=O)C1CC1)CC2)NCc1ccco1 | inactive |
| O=C1Nc2ccc(Br)cc2/C1=C/C1CC=CCC1 (stereo not drawn) | inconclusive: 35.5 µM [inhibitor, single point] |
| Cc1ccc(NC(=O)c2ccc(Cl)c(S(=O)(=O)NCc3ccco3)c2)c(O)c1 | inconclusive: 17.8 µM [inhibitor, partial curve, poor fit] |
| COc1ccc(Cl)cc1NC(=O)Cn1c(=O)c2ccccc2n2nncc12 | inconclusive: 10 µM [activator, partial curve, poor fit] |
| O=[N+]([O-])c1ccc(N/N=C/c2ccccc2)c(F)c1 | inconclusive: 3.98 µM [activator, full curve] |
| Clc1ccc(NCc2nc3ccccc3n2CCOc2ccccc2)cc1 | inconclusive: 5.62 µM [activator, single point] |
| COC[C@H]1OC(=O)c2coc3c2[C@@]1(C)C1=C(C3=O)C2CCC(=O)[C@@]2(C)C[C@H]1OC(C)=O (stereo partly drawn) | inconclusive: 2.91 µM [inhibitor, full curve] |
| CCC(C(=O)Nc1ccc(C)c(Cl)c1)n1c(=O)c(-c2ccccc2NC(C)=O)nc2ccccc21 (stereo not drawn) | inactive |
| O=c1cc(Cl)[nH]c(=O)n1CCNc1ncc(C(F)(F)F)cc1Cl | inconclusive: 7.08 µM [activator, full curve, poor fit] |
| CCOC(=O)C(Oc1ccc2c(-c3ccccc3)cc(=O)oc2c1)c1ccccc1 (stereo not drawn) | inconclusive: 2.82 µM [inhibitor, full curve] |
| CCOC(=O)c1sc(=S)n(C)c1NC(=O)c1ccc(C(C)(C)C)cc1 | inconclusive: 35.5 µM [inhibitor, single point] |
| CC(Oc1ccc(F)cc1)C(=O)Nc1cc(S(=O)(=O)N2CCCCC2)ccc1N1CCOCC1 (stereo not drawn) | inconclusive: 3.16 µM [inhibitor, partial curve, poor fit] |
| CCOC(=O)N1CCN(C(=O)c2ccc(N(Cc3ccccc3Cl)S(C)(=O)=O)cc2)CC1 | inconclusive: 35.5 µM [inhibitor, partial curve, poor fit] |
| CSc1ccccc1OCc1cc(C(=O)N2CCSCC2)no1 | inconclusive: 3.55 µM [activator, single point] |
| CCOc1ccc(-c2nc3n(c(=O)c2C#N)CCCS3)cc1 | active: 7.08 µM |
| Cc1ccccc1Cn1c(=O)n(CCC(=O)NCc2ccco2)c(=O)c2sccc21 | inactive |
| O=C(CSc1nccn1Cc1ccccc1)NCc1ccccc1 | inactive |
| CC(=O)N1CCc2cc(S(=O)(=O)N3CCc4ccccc4C3)ccc21 | inactive |
| CCCCOCC1CN(CCCC)S(=O)(=O)c2c(Oc3ccc(OC)cc3)cccc2O1 (stereo not drawn) | inconclusive: 0.0035 µM [inhibitor, full curve, poor fit] |
| CCc1nc(-c2ccc(C)c(S(=O)(=O)N3CCN(c4ccc(C(C)=O)cc4)CC3)c2)no1 | inconclusive: 35.5 µM [inhibitor, single point] |

| SMILES | Potency |
| --- | --- |
| C/C(=N\NC(=O)c1c[nH]c2ccccc12)c1ccc(C)s1 | inconclusive: 6.31 µM [inhibitor, single point] |
| Cc1cccc(-n2ncc3c2CCCC3NC(=O)CCN2CCCO2)c1C (stereo not drawn) | inconclusive: 3.55 µM [inhibitor, partial curve, poor fit] |
| CCOc1nc(Nc2ccc(OC)c(Cl)c2)nc(N2CCN(c3ccc(OC)cc3)CC2)n1 | inconclusive: 35.5 µM [inhibitor, single point] |
| CC(=O)C1=C(C)N(Cc2ccccc2)C(=O)NC1c1ccco1 (stereo not drawn) | inconclusive: 0.133 µM [inhibitor, full curve, poor fit] |
| Cc1ccc(CN2CC(N3CCN(c4ccccn4)CC3)CS2(=O)=O)cc1 (stereo not drawn) | inactive |
| C=CCNC(=O)c1scc2c1CCCC2 | inactive |
| COc1ccc(NC(=O)C2CCC(CNS(=O)(=O)c3ccc(Br)s3)CC2)c(OC)c1 (stereo not drawn) | inactive |
| Cc1ccc(NC(=O)CCn2c(=O)oc3ccccc32)c(C)c1 | inactive |
| CC(C)CC(C(=O)NCC1CCN(Cc2ccc(F)cc2)CC1)N1Cc2ccccc2C1=O (stereo not drawn) | inconclusive: 3.98 µM [inhibitor, full curve] |
| Cc1cc(F)ccc1S(=O)(=O)Nc1ccccc1C(=O)Nc1ccc2[nH]c(=O)[nH]c2c1 | inconclusive: 0.398 µM [inhibitor, full curve, poor fit] |
| Cc1ccc([C@H]2C[C@H](O)[C@@H](n3cc(COC(=O)c4ccccc4)nn3)CN2C(=O)C2CCCCC2)cc1 | inconclusive: 3.53 µM [inhibitor, partial curve, poor fit] |
| O=C1CC(N2CCCN(C3CC(=O)N(c4ccc(F)cc4)C3=O)CC2)C(=O)N1c1ccc(F)cc1 (stereo not drawn) | inactive |
| CCOC(=O)c1c(C)[nH]c(C(=O)N/N=C\c2ccccc2O)c1C | active: 8.91 µM |
| COc1ccc(OC)c(NC(=O)C2C(C(=O)O)C3(Cl)C(Cl)=C(Cl)C2(Cl)C3(Cl)Cl)c1 (stereo not drawn) | inactive |
| Cc1ccc(O)c(NC(=S)NC(=O)c2ccccc2Cl)c1 | inconclusive: 10 µM [inhibitor, partial curve, poor fit] |
| S=C(Nc1cccc(Cl)c1Cl)NC1CCN(Cc2ccccc2)CC1 | inconclusive: 10 µM [inhibitor, partial curve, poor fit] |
| Cc1cc(C=O)c(C)n1-c1cc(C(F)(F)F)ccc1N1CCOCC1 | inconclusive: 5.62 µM [activator, single point] |
| COc1cc(CC(=O)NC2CCCc3ccccc32)cc(OC)c1OC (stereo not drawn) | inactive |
| CCOCCCNC(=O)c1ccc2nc(-c3ccc(OC)c(OC)c3)c(-c3ccc(OC)c(OC)c3)nc2c1 | inconclusive: 15.8 µM [inhibitor, single point] |
| CCOc1ccc(C(=O)Nc2ccc(-n3nncc3-c3ccc(OC)cc3)cc2)cc1 | inconclusive: 35.5 µM [inhibitor, single point] |
| O=C(COC(=O)c1ccc(F)c([N+](=O)[O-])c1)NC(=O)NCc1ccccc1 | inconclusive: 35.5 µM [inhibitor, single point] |
| CC(C)CC(COCc1ccc(Cl)cc1)N1CCN(C(=O)c2ccc(Cl)cc2Cl)CCC1=O (stereo not drawn) | active: 14.6 µM |
